# Test results reported in article doi:10.1101/2025.10.17.683117.
# By UniProt entry, the sequences of proteins in these tests, tags left out.
# UniProt Q7Z434: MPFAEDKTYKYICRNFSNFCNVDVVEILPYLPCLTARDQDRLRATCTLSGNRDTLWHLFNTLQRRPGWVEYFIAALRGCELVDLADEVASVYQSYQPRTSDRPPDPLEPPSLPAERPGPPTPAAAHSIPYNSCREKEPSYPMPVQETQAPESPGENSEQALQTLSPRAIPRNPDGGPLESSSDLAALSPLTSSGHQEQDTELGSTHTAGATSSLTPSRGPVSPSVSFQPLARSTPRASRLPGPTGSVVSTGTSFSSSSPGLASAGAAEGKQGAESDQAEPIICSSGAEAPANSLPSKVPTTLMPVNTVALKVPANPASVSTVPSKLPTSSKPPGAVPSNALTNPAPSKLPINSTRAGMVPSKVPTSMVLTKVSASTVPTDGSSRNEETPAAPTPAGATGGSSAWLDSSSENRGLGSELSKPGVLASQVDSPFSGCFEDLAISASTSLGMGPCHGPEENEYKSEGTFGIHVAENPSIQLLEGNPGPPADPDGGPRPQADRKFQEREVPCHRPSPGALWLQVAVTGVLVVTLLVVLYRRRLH
# These are yes or no findings as the source states them, for the method shown. In cells and extracts the contact can be indirect. Some binding calls cover weakened binding; strength is not graded here. Tags and fused reporters may be left off the sequences shown.
# T1: SmBiT-fused human IRF3 (pBit2.1-N[TK/SmBit]-IRF3) (human) (UniProt Q14653)
# T1 sequence: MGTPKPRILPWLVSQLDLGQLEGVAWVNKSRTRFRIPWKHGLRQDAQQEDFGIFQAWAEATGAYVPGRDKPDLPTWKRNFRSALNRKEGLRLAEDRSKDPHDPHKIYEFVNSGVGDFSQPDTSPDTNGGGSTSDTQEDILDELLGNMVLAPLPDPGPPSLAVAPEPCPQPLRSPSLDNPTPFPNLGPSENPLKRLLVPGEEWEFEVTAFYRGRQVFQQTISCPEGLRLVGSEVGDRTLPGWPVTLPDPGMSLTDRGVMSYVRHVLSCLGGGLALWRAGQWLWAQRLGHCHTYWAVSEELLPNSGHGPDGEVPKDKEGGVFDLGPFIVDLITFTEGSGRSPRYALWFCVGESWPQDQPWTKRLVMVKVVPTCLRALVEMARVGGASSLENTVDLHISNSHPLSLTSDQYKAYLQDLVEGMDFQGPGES
# How the values were obtained:
# [1] = target: T1, SmBiT-fused human IRF3 (pBit2.1-N[TK/SmBit]-IRF3) (human); experiment: split reporter
# [2] = target: SmBiT-fused human MAVS (Mitochondrial antiviral signaling protein), full length (pBit2.1-N[TK/SmBit]-MAVS) (human) (UniProt Q7Z434); experiment: split reporter
binder,measurement,setting,value
"LgBiT-fused NSs protein of Sandfly fever Sicilian virus (pBiT1.1-N[TK/LgBiT]-SFSV-NSs) (protein, UniProt P12792 1-267) MINNNMMNSQYMFDYPAINIDVRCHRLLSSVSYVAYNKFHTHDVSTYEHCEIPLEKLRLGFGRRNSLADFYSLGELPASWGPACYFSSVKPMMYTFQGMASDLSRFDLTSFSRKGLPNVLKALSWPLGIPDCEIFSICSDRFVRGLQTRDQLMSYILRMGDSHSLDECIVQAHKKILQEARRLGLSDEHYNGYDLFREIGSLVCLRLINAEPFDTASSGEALDVRTVIRSYRASDPSTGLTEYGNSLWTPIHSHVDENDESSSDSDF",binding,[1],binds
same,binding,[2],no binding
